Measurements taken from publication PMC8922104.

Sequences of proteins named here, by UniProt entry; tags and fusion partners are left off. A change or cut given only in a name is not applied to a line headed by its entry.
UniProt P01106: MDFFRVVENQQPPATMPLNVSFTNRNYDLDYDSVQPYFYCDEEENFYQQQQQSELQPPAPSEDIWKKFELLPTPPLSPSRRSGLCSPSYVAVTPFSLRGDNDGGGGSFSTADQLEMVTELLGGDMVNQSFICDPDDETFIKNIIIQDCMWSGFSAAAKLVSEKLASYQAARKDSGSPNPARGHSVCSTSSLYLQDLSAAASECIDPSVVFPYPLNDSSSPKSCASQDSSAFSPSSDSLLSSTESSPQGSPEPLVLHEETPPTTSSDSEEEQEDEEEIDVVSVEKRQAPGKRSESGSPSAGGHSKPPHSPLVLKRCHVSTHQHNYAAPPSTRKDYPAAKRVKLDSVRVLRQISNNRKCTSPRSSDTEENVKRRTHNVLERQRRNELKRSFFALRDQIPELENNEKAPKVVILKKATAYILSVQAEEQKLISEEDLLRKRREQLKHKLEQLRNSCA
UniProt Q9UNE7: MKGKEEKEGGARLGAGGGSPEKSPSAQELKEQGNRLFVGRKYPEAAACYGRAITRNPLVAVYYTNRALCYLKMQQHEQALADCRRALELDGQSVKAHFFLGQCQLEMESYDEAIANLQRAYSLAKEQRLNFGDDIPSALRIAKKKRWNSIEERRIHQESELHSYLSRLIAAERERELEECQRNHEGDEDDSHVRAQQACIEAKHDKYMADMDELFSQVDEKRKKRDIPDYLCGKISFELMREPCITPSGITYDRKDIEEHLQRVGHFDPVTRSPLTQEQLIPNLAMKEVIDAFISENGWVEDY

Target: HA‐tagged c‐Myc mutant R346A (human) (UniProt P01106)
Test: co-IP; HEK293T cells transfected with HA-c-Myc or HA-tagged mutants, 48 h later treated with WBC100 (2 uM) or DMSO in the presence of MG-132 (10 uM) for 4 h; NP40 lysis buffer; anti-HA magnetic beads, 4 °C overnight; blot for CHIP

binding: binds
Substance: E3 ubiquitin ligase CHIP (from UniProt Q9UNE7 1-303) (enzyme)

These are yes or no findings as the source states them, for the method shown. Binding seen in cells or lysates may run through a third protein. Binding calls can cover weak binding; strength is not graded here.
